Test results published in article PMC7548010.
Results are given in words; binding and its absence hold for the method and conditions named. Binding seen in cells or lysates may run through a third protein. Some results given as binding are weak or reduced against the parent protein; the word gives no strength.

By UniProt entry, the sequences of proteins in these tests, tags left out.
UniProt Q93009: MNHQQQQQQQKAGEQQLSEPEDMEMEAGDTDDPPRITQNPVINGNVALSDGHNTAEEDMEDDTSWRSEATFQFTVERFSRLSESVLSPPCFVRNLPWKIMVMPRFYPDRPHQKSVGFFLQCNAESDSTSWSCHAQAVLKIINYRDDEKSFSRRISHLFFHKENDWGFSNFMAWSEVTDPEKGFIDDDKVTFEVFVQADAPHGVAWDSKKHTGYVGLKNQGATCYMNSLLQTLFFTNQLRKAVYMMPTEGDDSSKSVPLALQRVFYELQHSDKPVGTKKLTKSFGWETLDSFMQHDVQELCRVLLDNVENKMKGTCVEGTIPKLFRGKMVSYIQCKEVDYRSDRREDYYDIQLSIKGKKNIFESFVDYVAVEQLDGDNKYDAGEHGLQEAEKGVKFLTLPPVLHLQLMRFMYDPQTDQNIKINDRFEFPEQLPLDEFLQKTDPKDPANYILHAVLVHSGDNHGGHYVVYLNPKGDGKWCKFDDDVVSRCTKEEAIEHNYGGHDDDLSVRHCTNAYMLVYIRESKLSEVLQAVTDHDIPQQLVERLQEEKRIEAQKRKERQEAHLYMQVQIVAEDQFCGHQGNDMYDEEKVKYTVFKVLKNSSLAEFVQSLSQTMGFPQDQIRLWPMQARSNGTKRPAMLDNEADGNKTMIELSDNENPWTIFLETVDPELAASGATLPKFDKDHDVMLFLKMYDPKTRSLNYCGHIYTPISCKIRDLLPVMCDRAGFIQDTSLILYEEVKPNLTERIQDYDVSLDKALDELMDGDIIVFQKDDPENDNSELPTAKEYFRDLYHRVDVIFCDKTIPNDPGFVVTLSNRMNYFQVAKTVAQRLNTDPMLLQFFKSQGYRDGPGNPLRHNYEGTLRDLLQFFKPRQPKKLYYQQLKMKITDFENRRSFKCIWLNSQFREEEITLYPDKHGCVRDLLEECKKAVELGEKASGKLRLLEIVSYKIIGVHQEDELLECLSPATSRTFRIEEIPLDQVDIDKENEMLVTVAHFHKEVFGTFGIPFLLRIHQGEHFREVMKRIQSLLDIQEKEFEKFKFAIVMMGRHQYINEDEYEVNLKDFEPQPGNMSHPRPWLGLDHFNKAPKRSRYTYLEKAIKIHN
UniProt Q14966: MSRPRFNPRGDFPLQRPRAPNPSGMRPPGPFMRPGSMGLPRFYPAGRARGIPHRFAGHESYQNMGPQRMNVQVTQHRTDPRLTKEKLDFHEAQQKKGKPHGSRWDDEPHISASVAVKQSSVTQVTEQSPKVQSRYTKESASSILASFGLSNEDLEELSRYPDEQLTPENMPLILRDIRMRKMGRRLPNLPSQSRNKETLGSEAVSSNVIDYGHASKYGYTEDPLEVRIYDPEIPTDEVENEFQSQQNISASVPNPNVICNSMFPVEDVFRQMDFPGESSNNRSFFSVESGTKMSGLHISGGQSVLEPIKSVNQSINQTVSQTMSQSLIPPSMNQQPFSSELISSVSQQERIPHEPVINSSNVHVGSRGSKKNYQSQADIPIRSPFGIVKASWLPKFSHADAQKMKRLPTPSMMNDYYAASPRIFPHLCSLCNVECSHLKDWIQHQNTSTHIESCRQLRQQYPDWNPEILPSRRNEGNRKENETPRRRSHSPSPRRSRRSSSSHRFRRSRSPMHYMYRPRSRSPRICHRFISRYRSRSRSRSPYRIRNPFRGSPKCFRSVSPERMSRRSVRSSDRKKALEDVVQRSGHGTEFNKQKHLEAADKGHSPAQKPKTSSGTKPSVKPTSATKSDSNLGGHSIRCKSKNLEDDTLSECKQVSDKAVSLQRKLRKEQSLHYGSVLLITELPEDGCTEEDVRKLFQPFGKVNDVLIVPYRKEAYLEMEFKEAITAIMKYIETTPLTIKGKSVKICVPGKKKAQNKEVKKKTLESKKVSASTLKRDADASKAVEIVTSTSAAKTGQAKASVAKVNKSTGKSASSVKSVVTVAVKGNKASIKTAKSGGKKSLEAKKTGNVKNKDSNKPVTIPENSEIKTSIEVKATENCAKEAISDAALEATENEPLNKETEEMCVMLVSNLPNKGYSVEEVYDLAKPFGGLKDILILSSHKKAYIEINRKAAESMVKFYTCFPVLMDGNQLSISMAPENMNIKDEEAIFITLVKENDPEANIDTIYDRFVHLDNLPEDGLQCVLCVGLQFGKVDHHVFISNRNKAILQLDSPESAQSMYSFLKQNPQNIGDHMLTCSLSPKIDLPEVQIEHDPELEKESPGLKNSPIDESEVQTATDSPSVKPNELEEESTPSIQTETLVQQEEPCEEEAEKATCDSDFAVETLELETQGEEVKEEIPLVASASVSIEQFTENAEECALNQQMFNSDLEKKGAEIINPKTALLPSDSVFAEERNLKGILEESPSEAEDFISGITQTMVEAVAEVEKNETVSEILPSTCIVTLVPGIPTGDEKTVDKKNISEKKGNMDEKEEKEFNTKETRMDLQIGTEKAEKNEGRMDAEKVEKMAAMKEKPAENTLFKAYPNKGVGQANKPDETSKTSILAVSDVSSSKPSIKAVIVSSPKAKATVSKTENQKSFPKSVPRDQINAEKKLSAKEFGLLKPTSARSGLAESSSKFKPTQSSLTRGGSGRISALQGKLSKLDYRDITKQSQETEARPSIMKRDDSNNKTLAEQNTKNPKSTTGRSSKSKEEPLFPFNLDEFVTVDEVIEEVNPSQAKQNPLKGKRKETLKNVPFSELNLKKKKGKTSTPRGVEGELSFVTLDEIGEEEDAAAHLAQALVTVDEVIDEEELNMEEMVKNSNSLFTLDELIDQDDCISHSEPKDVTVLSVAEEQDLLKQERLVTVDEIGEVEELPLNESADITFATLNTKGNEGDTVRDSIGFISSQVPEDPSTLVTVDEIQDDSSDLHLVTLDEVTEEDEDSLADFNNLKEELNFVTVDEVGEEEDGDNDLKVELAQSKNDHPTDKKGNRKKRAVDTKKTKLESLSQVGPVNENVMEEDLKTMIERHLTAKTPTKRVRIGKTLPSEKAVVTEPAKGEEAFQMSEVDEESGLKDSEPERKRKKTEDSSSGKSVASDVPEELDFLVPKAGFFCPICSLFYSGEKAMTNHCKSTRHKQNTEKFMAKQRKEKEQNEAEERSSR

Assays:
[1] = target: Ubiquitin-specific peptidase 7 (USP7) (human (endogenous in SK-Hep1 and Huh-7)) (UniProt Q93009); test: co-IP; endogenous proteins, SK-Hep1 cells lysed in RIPA lysis buffer with protease inhibitors; immunoprecipitation with primary antibody and protein A/G agarose, immunoblotting
[2] = target: Zinc finger protein 638 (ZNF638) (human (endogenous in SK-Hep1 and Huh-7)) (UniProt Q14966); test: as above

B1: full-length SREBP1C (sterol regulatory element binding protein) (protein, UniProt P36956-3 1-1047)
chain: MDCTFEDMLQLINNQDSDFPGLFDPPYAGSGAGGTDPASPDTSSPGSLSPPPATLSSSLEAFLSGPQAAPSPLSPPQPAPTPLKMYPSMPAFSPGPGIKEESVPLSILQTPTPQPLPGALLPQSFPAPAPPQFSSTPVLGYPSPPGGFSTGSPPGNTQQPLPGLPLASPPGVPPVSLHTQVQSVVPQQLLTVTAAPTAAPVTTTVTSQIQQVPVLLQPHFIKADSLLLTAMKTDGATVKAAGLSPLVSGTTVQTGPLPTLVSGGTILATVPLVVDAEKLPINRLAAGSKAPASAQSRGEKRTAHNAIEKRYRSSINDKIIELKDLVVGTEAKLNKSAVLRKAIDYIRFLQHSNQKLKQENLSLRTAVHKSKSLKDLVSACGSGGNTDVLMEGVKTEVEDTLTPPPSDAGSPFQSSPLSLGSRGSGSGGSGSDSEPDSPVFEDSKAKPEQRPSLHSRGMLDRSRLALCTLVFLCLSCNPLASLLGARGLPSPSDTTSVYHSPGRNVLGTESRDGPGWAQWLLPPVVWLLNGLLVLVSLVLLFVYGEPVTRPHSGPAVYFWRHRKQADLDLARGDFAQAAQQLWLALRALGRPLPTSHLDLACSLLWNLIRHLLQRLWVGRWLAGRAGGLQQDCALRVDASASARDAALVYHKLHQLHTMGKHTGGHLTATNLALSALNLAECAGDAVSVATLAEIYVAAALRVKTSLPRALHFLTRFFLSSARQACLAQSGSVPPAMQWLCHPVGHRFFVDGDWSVLSTPWESLYSLAGNPVDPLAQVTQLFREHLLERALNCVTQPNPSPGSADGDKEFSDALGYLQLLNSCSDAAGAPAYSFSISSSMATTTGVDPVAKWWASLTAVVIHWLRRDEEAAERLCPLVEHLPRVLQESERPLPRAALHSFKAARALLGCAKAESGPASLTICEKASGYLQDSLATTPASSSIDKAVQLFLCDLLLVVRTSLWRQQQPPAPAPAAQGTSSRPQASALELRGFQRDLSSLRRLAQSFRPAMRRLMDVLTSESAWALPQHLGKGFPSPSGHKVPGWHGRMD
binding [1]: binds
binding [2]: binds
